# According to patent US6372212B1, “Chitinase materials and methods” (ICOS Corporation, priority 1996, dated 2002):
# Legend:
# [1] = tested on: Aspergillus fumigatus (ATCC no. 16424); test: Broth assay; format: cell-based; settings: ATCC16424, lowest concentration inhibiting growth by at least 50%
# Method: (§1) In additional experiments, the anti-fungal activity of recombinant human chitinase (produced in COS cells as described in Example 5A) was evaluated in an agar diffusion assay, in a broth assay according to National Committee on Clinical Laboratory Standards, and in a cell wall inhibition assay according to Selitrennikoff, Antimicrob. Agents Chemother., 23:757-765 (1983).
# (§2) In the broth assay, 50 μg/ml of the sample (A: recombinant human chitinase, B: buffer control, C: control protein, D: a bacterial lysate with chitinase activity, or a known anti-fungal agent) was added with a certain concentration of the test fungal organism to RPMI 1640 media buffered with MOPS, pH 7.0. The samples were incubated at 35° C., with shaking at 120 rpm, for 48 hours, and then growth was evaluated by measuring the turbidity of the suspension. The approximate concentrations of the test fungi were as follows: 2.5×10^4 cells/ml of Candida albicans (ATCC no. 90028); 5×10^4 cells/ml of Candida albicans-polyene resistant (ATCC no. 38247); 1 x 10^4 cells/ml of Aspergillus fumigatus (ATCC no. 16424); 1×10^4 cells/ml of Neurospora crassa (ATCC no. 18889); and 1×10^4 cells/ml of Saccharomyces cerevisiae (ATCC no. 26108).
# [2] = tested on: Candida albicans-polyene resistant (ATCC no. 38247); test: Broth assay; format: cell-based; settings: lowest concentration inhibiting growth by at least 50%
# Method: as §1, §2
compound,measurement,setting,value
Clc1ccc(COC(Cn2ccnc2)c2ccc(Cl)cc2Cl)c(Cl)c1 (centres unmarked) [miconazole],IC50,[1],0.5 µg/mL
same,IC50,[2],2 μg/ml (growth is 50% of control)
